# Assay results published in PubChem BioAssay AID248 (DTP/NCI, 2004).
# The list shows only some results of the screen, not a fair sample: it is rich in T/C values a quarter to a half above the control, in often repeated tests (any T/C) and in doses without a T/C. Further doses and runs are listed elsewhere. T/C: endpoint of the treated group in % of that of the vehicle group. Some entries give survivors of the animals treated and no T/C: the source holds a T/C of zero for them, seemingly a mark for toxic or unscored doses. Some survivor counts are full or nearly so, which does not show that the dose was tolerated: the source hardly ever lists a survival T/C far under the control, and the zero likely stands for such cases as well. Counts of survivors are from the toxicity check (mostly the fifth day) where no day follows; animals may have died later. Schedules are NCI's codes, read here as Q, the interval in days (D) or hours (H), X, the number of doses. Some schedules carry Z or #; the key to these is not given.
# System: L1210 leukemia ip in BDF1 mice, survival T/C
# Assay: NCI In Vivo Anticancer Drug Screen. Data for tumor model L1210 Leukemia (intraperitoneal) in B6D2F1 (BDF1) mice
# Settings: T/C endpoint: mean survival time, higher T/C = longer survival
# [1] = dose: 400.0 mg/kg/injection, schedule: Q04DX002 (ip), vehicle: saline with Tween-80
# [2] = dose: 300.0 mg/kg/injection, schedule: Q01DX001 (ip), vehicle: saline
# [3] = dose: 200.0 mg/kg/injection, schedule: Q04DX003 (ip), vehicle: saline
# [4] = dose: 400.0 mg/kg/injection, schedule: Q04DX003 (ip), vehicle: saline
structure (smiles),measurement,setting,value
O=S1(=O)CCCCC1=C(c1ccccc1)c1ccccc1,survivor count,[1],3 of 3
CCCC[n+]1ccc(C#N)cc1,survivor count,[2],0 of 6
Clc1ccc2[nH]c(-c3ccccc3)c(-c3ccccc3)c2c1,survivor count,"dose: 400.0 mg/kg/injection, schedule: Q01DX009 (ip), vehicle: acetone",2 of 6
Cc1nc(N)[nH]c(=O)c1CCCNc1ccc(/C=C/C2(CCl)OCCO2)cc1,survivor count,"dose: 100.0 mg/kg/injection, schedule: Q01DX Z (ip), vehicle: carboxymethylcellulose (CMC)",6 of 6
CCCCNC(c1ccccc1)=[N+]1CCCCC1,survivor count,"dose: 50.0 mg/kg/injection, schedule: Q04DX002 (ip), vehicle: saline",1 of 3
same,survivor count,"dose: 100.0 mg/kg/injection, schedule: Q04DX002 (ip), vehicle: saline",0 of 3
same,survivor count,"dose: 200.0 mg/kg/injection, schedule: Q04DX002 (ip), vehicle: saline",0 of 3
same,survivor count,"dose: 400.0 mg/kg/injection, schedule: Q04DX002 (ip), vehicle: saline",0 of 3
CC(C)=CCOc1ccc2c(c1)OCO2,survivor count,[1],1 of 3
O=C(COc1ccc(Cl)c(Cl)c1)NCc1ccc[n+](Cc2ccc(S(=O)(=O)F)c(Cl)c2)c1,survivor count,[3],2 of 6
same,survivor count,[4],0 of 6
CC(C)c1cc(CN(C)C)cc(C(C)C)c1O,survivor count,"dose: 400.0 mg/kg/injection, schedule: Q04DX003 (ip), vehicle: Klucel (hydroxypropylcellulose) (HPC)",0 of 6
CCC(=O)NC(N)=S,survivor count,"dose: 100.0 mg/kg/injection, schedule: Q01DX009 (ip), vehicle: Klucel (hydroxypropylcellulose) (HPC)",0 of 6
C[n+]1ccccc1SC12CC3CC(CC(C3)C1)C2,survivor count,"dose: 20.0 mg/kg/injection, schedule: Q01DX009 (ip), vehicle: Klucel (hydroxypropylcellulose) (HPC)",0 of 6
same,survivor count,"dose: 40.0 mg/kg/injection, schedule: Q01DX009 (ip), vehicle: Klucel (hydroxypropylcellulose) (HPC)",0 of 6
Cc1ccc(S(=O)(=O)N(N)C(=O)c2ccccc2)cc1,survivor count,"dose: 75.0 mg/kg/injection, schedule: Q01DX001 (ip), vehicle: saline",6 of 6
same,survivor count,"dose: 150.0 mg/kg/injection, schedule: Q01DX001 (ip), vehicle: saline",6 of 6
same,survivor count,[2],6 of 6
O=Nc1ccc(N(CCO)CCO)cc1,survivor count,"dose: 50.0 mg/kg/injection, schedule: Q01DX001 (ip), vehicle: saline",0 of 4
same,survivor count,"dose: 80.0 mg/kg/injection, schedule: Q01DX001 (ip), vehicle: saline",0 of 4
same,survivor count,"dose: 100.0 mg/kg/injection, schedule: Q01DX001 (ip), vehicle: saline",0 of 4
same,survivor count,"dose: 200.0 mg/kg/injection, schedule: Q01DX001 (ip), vehicle: saline",0 of 4
same,survivor count,"dose: 400.0 mg/kg/injection, schedule: Q01DX001 (ip), vehicle: saline",0 of 4
CC(C)OC(CCC#N)c1ccccc1 (stereo unspecified),survivor count,"dose: 400.0 mg/kg/injection, schedule: Q01DX009 (ip), vehicle: Klucel (hydroxypropylcellulose) (HPC)",5 of 6
CCc1nnnn1C12CC3CC(CC(C3)C1)C2,survivor count,[3],1 of 6
same,survivor count,[4],0 of 6
